{"source": "PubChem BioAssay AID1347423", "about": "(Functional Genomics Laboratory (NCATS/FGL), 2020)", "note": "Hit rate of the full screen: of about 52,000 sequences, about 210 (0.4%) were called active.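 Rule for the calls: active = gene whose silencing raises cell survival under the drug, median off-target-corrected z-score across its silencing RNAs 2 or more; inactive = the rest.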 The list shows a part of the results.", "data": [{"test": "Resistance to Poly (ADP-Ribose) Polymerase inhibitor: Gene Identification via Genome-wide siRNA Screen", "details": "mouse BRCA2 R2336H ES cells, olaparib, CellTiter-Glo viability; hits give high values", "method_in_brief": "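Mouse BRCA2 R2336H ES cells were reverse-transfected with siRNA (20 nM final), treated at 48 h with 500 nM olaparib, and read by CellTiter-Glo after 72 h. Scores: MAD-based z per siRNA, median per gene, seed off-target correction.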", "values": [{"sequence": "GCAGGUAUGAUGAAGGUUCTT against Recql5", "z-score": "inactive: -1.08"}, {"sequence": "GGCAGUGACCCUAGUUUAUTT against Lhx1", "z-score": "inactive: -0.0013"}, {"sequence": "GCUGGACUUCUGUGCUUCUTT against Olfr787", "z-score": "inactive: 0.35"}, {"sequence": "GGACAUAAGAGAAUGGUCATT against Lpp", "z-score": "inactive: 1.63"}, {"sequence": "GCCCAAGUAUUUUAUUUCATT against Asb2", "z-score": "inactive: 0.0367"}, {"sequence": "GGUUGAGUUGGAUGACCUUTT against Lsm10", "z-score": "inactive: -0.417"}, {"sequence": "GUUUUGUUUCAGAGCAGAATT against Olfr900", "z-score": "inactive: -0.277"}, {"sequence": "CGGAGGUGGCUAUAAAAAUTT against Sik2", "z-score": "inactive: 0.391"}, {"sequence": "CCGUGUUGUCUGAAAAAUATT against 1110006G06Rik", "z-score": "inactive: -0.404"}, {"sequence": "GCGAAGAGUGAUUGAUCCATT against Myh1", "z-score": "inactive: -0.591"}, {"sequence": "GGUAGAAGAGUCUGAUCAUTT against Sfrp1", "z-score": "inactive: -2.25"}, {"sequence": "CCUUCUAAAUACUGAUUUGTT against 9430041C03Rik", "z-score": "inactive: -0.163"}, {"sequence": "GGGCGAGUUGAAGAAUUUCTT against AA545217", "z-score": "inactive: 0.584"}, {"sequence": "CGAAAGAUCUAAAUCAGAATT against Map3k4", "z-score": "inactive: 0.605"}, {"sequence": "GGCAUUGUGGAUUUCGAGCTT against 1700021K02Rik", "z-score": "inactive: -0.398"}, {"sequence": "CCUUCAUCAUUACUCUUCUTT against Olfr780", "z-score": "inactive: 0.12"}, {"sequence": "GGCCACUUGACACUUGGUUTT against Pcdha4", "z-score": "inactive: -1.09"}, {"sequence": "GGACGAACUGAAGCCCUUATT against Rai2", "z-score": "inactive: -1.19"}, {"sequence": "GGUCAUCGAGGCUGACUUGTT against Slc39a3", "z-score": "inactive: -2.01"}, {"sequence": "GGAAUAUUACCAGUCGGAATT against Marveld3", "z-score": "inactive: 0.596"}, {"sequence": "GGGUUGAAAUCACUAUUGATT against 4933403G14Rik", "z-score": "inactive: -0.763"}, {"sequence": "GCUGCAUAACUCUUACACATT against 1810017G16Rik", "z-score": "inactive: 1.89"}, {"sequence": "GCUGGAGUUAAUGGUCACATT against Olfr1306", "z-score": "inactive: -1.61"}, {"sequence": "GGUAGAUUAUAGCAAAAUGTT against Ik", "z-score": "inactive: -1.37"}, {"sequence": "GGUUCUUCGGCUUAUGUUGTT against D13Bwg1146e", "z-score": "inactive: 1.1"}, {"sequence": "GGAAGAGGAAAUGGAAUCATT against 3010026O09Rik", "z-score": "inactive: -0.778"}, {"sequence": "GGGAGGUGUCUUUACGUCUTT against Neto1", "z-score": "inactive: 0.229"}, {"sequence": "AACAAUGAGAUCGACUUUATT against Olfr1500", "z-score": "inactive: -0.695"}, {"sequence": "GGUCUUCUCCAAGAUCUUCTT against Cyp26b1", "z-score": "inactive: 0.482"}, {"sequence": "CCAGCACGCAUUUAAAUAATT against Olfr628", "z-score": "inactive: -0.544"}, {"sequence": "GCAGUAUGAGAUCUCCUUCTT against Galnt10", "z-score": "inactive: -0.313"}, {"sequence": "GGGUGAUGAAGAUGGCACUTT against Olfr66", "z-score": "inactive: 0.00101"}, {"sequence": "GCGGCCACGGGACGGCGGUTT against Hmx2", "z-score": "inactive: 0.841"}, {"sequence": "GCUGUACCACAACUAGUCATT against Cdc7", "z-score": "inactive: -1.47"}, {"sequence": "GGGACCUUGAUCAAAACCUTT against Gp5", "z-score": "inactive: 1.77"}, {"sequence": "GGCUGUUCUCUAGAUGAAUTT against 1810065E05Rik", "z-score": "inactive: 1.96"}, {"sequence": "GGAUUUCGAGAAAAUCAACTT against Kctd4", "z-score": "inactive: -0.472"}, {"sequence": "GGACUUGAUUUAGUGGAAGTT against BC003993", "z-score": "inactive: -2.74"}, {"sequence": "CGAAACUGGUCUUUAUACUTT against Tigd4", "z-score": "inactive: 1"}, {"sequence": "GCUCAAACACGUGUCGCACTT against D130074J02Rik", "z-score": "inactive: 1.23"}, {"sequence": "CCAUAUGCAAGGAAUCUGCTT against Adam26", "z-score": "inactive: -0.415"}, {"sequence": "GGAUGAAAGUCCAACCACATT against Tulp2", "z-score": "inactive: -1.09"}, {"sequence": "GGUAAAAAACCAAGAACAATT against Ednrb", "z-score": "inactive: -0.0469"}, {"sequence": "GCCAACUCAAGCAAUCUGCTT against D130072O21Rik", "z-score": "inactive: -0.0372"}, {"sequence": "GGGACAACUUAGGUGCUGGTT against Slc12a9", "z-score": "inactive: 0.823"}, {"sequence": "CCAGAACAUGUCCCUUCAATT against Rnase1", "z-score": "inactive: -1.14"}, {"sequence": "GCUGUGUAUGUAUUUCAUGTT against Rnf128", "z-score": "inactive: 0.332"}, {"sequence": "GGGAGACAGUUCUGCUGAATT against Rpl13", "z-score": "inactive: -3.3"}, {"sequence": "GGUGGAAUGAUAGUGUUCATT against C230078M08Rik", "z-score": "inactive: -0.262"}, {"sequence": "CCUAUGAGAAAUGCUGCCCTT against AY100450", "z-score": "inactive: 0.0084"}, {"sequence": "GGGCAAGAACUACAUCUGCTT against Wdr18", "z-score": "inactive: -1.17"}, {"sequence": "GCAUUUUGUUGUGCUAUAGTT against 6430550H21Rik", "z-score": "inactive: -0.35"}, {"sequence": "GGCGCAGACACUCAGUUUGTT against C530044N13Rik", "z-score": "inactive: -0.247"}, {"sequence": "GAACACCCUGCCGACCAAATT against Tmsb10", "z-score": "inactive: 1.47"}, {"sequence": "GGAUACAUAUAGGUAGAAUTT against Gpr126", "z-score": "inactive: 1.69"}, {"sequence": "GACCACUUCCUUCUAUGCCTT against Slc35c1", "z-score": "inactive: 0.324"}, {"sequence": "GGUCUUAUUUUGAAGUGUUTT against Cybb", "z-score": "inactive: -1.21"}, {"sequence": "GGAUGUGCCCGAUAUUCCATT against Gtpbp1", "z-score": "inactive: 0.655"}, {"sequence": "GCUGGAUCUUUGAAUGAGGTT against Olfr910", "z-score": "inactive: -0.405"}, {"sequence": "GGCAAGAAUGGGAUAAUACTT against D16Ertd480e", "z-score": "inactive: -0.62"}, {"sequence": "GGUUCUUCCCAGAAGGAGGTT against 4732496O08Rik", "z-score": "inactive: 0.861"}, {"sequence": "GAUACGAGGAAAUCGUUAATT against Eef1a1", "z-score": "inactive: -1.78"}, {"sequence": "CUUUGCUCUACCUUUCAGCTT against Olfr657", "z-score": "inactive: 0.64"}, {"sequence": "GAGGGUGACCGCUUCAGAATT against Scn4b", "z-score": "inactive: 0.752"}, {"sequence": "CGAUCAACAAGAAAAAGCUTT against Lcp1", "z-score": "inactive: 0.0129"}, {"sequence": "CCAACGUGUCCUUGCUCAATT against Stk22s1", "z-score": "inactive: 0.671"}, {"sequence": "CCUGAAGAGGAUGAUAUGGTT against D330028D13Rik", "z-score": "inactive: 1.43"}, {"sequence": "GGCAAACAACUGAAUAAGGTT against Pbsn", "z-score": "inactive: 0.0819"}, {"sequence": "CCUUACCUGCCCUAGCAAUTT against Lpd", "z-score": "inactive: 0.273"}, {"sequence": "GGGAUGUUUUGUUUUUAACTT against Mlc1", "z-score": "inactive: -0.346"}, {"sequence": "CCAUAUAUUAUGGACCUUATT against AI987662", "z-score": "inactive: -0.963"}, {"sequence": "GGAUCUAUUUGGCAGAUUUTT against 4932702K14Rik", "z-score": "inactive: 0.174"}, {"sequence": "GGACCAUGGAUAUUUAGCATT against Sms", "z-score": "inactive: -1.27"}, {"sequence": "GCUGAAACCCUUCGUACAGTT against Prlpc3", "z-score": "inactive: 0.59"}, {"sequence": "GGAGUUAUUAACUGAAGAGTT against Cyp2c55", "z-score": "inactive: 0.338"}, {"sequence": "CCCACAUCAUUGAGAUUCUTT against Olfr1508", "z-score": "inactive: 0.349"}, {"sequence": "GCCGUUCUGCUAUCACAACTT against Scrn2", "z-score": "inactive: 0.0402"}, {"sequence": "GCUGACUGCUAAAAUCCAGTT against 2600017H08Rik", "z-score": "inactive: 0.76"}, {"sequence": "GGUAAAUCAGCCAUAGUUUTT against 7530404M11Rik", "z-score": "inactive: -1.07"}, {"sequence": "GCAGAAGUAUUACUGGAUGTT against Olfr572", "z-score": "inactive: -0.569"}, {"sequence": "GCUUGUUAUGUCACAUAUCTT against Pdcl3", "z-score": "inactive: -0.974"}, {"sequence": "GGUCCAAGUCCGAAAAUAUTT against Gpr108", "z-score": "inactive: -2.91"}, {"sequence": "GCCAUUUAUUCGUCUCUUCTT against 3321401G04Rik", "z-score": "inactive: 0.499"}, {"sequence": "GGAAUUUCUGGAGAAACUUTT against Lypla2", "z-score": "inactive: -1.62"}, {"sequence": "GUUUGGCCGAGUUCAUUUCTT against BC028278", "z-score": "inactive: -2.16"}, {"sequence": "GGAUGACCUCAUGCUUAUUTT against 1700016G05Rik", "z-score": "inactive: -0.299"}, {"sequence": "GGAAAAAGUUGCUCAAAAUTT against Mrps15", "z-score": "inactive: 0.42"}, {"sequence": "CCACAUCCUGACUACUACATT against Sumo2", "z-score": "inactive: -3.56"}, {"sequence": "GGGCUGUUCUACUUAGUUATT against 5830445C04Rik", "z-score": "inactive: 1.56"}, {"sequence": "GGGUGUUAUUUUCUUCUAUTT against Stambp", "z-score": "inactive: 0.823"}, {"sequence": "GCACAUAGCAUCCACUCCATT against LOC215714", "z-score": "inactive: 0.00803"}, {"sequence": "GGGUUUAGACCAAUCCCUCTT against Adamts15", "z-score": "inactive: -0.186"}, {"sequence": "GGUCACCUACUAUCACAAGTT against Kcnh7", "z-score": "inactive: -0.349"}, {"sequence": "GUGUUCAAUAUACUGGCAATT against Klra10", "z-score": "inactive: -0.411"}, {"sequence": "CGUUCUAUGGAAACUGGAGTT against Cte1", "z-score": "inactive: -0.602"}, {"sequence": "GGGAAGAAUACUAUAGAUGTT against Slc12a2", "z-score": "inactive: 0.159"}, {"sequence": "GGAGGUAAAAGAUGAGAAATT against 2810052M02Rik", "z-score": "inactive: -0.511"}, {"sequence": "GCACAAUAAAGCUUGUUGCTT against Htf9c", "z-score": "inactive: -0.782"}, {"sequence": "UCGAGGACAGCAUGAACAGTT against Rims4", "z-score": "inactive: 1.55"}, {"sequence": "GGGAGAGCAGUUUGAAUGGTT against Usp27x", "z-score": "inactive: -0.515"}, {"sequence": "CCAGGUGAAUUAAUAGUCUTT against Stk4", "z-score": "inactive: -0.315"}, {"sequence": "GGGCAAAUAGUCAAUGACCTT against Es22", "z-score": "inactive: 0.17"}, {"sequence": "GGACGAACAGUAUUAUACUTT against Lhx5", "z-score": "inactive: 0.685"}]}]}
